The text below walks through data of the supplement of paper PMC10398353.

Where a name gives a salt, the structure may show the parent alone. ± gives the standard deviation of the averaged measurements. The list shows a part of the results. Single values of this set are uncertain.

The subject of this assay is Salmonella enterica serovar Typhimurium ST313 D23580. The assay is described as follows: normalized bacterial growth (OD600 20 h minus 0 h, interquartile-mean normalized) (fraction of plate interquartile mean); higher = more bacterial growth (less inhibition). The note with it: LPM (pH 5.8, low phosphate, low Mg2+), concentration: 10 µM, temperature: 37 °C.
`CN[C@@H]1[C@@H](O)[C@@H](O[C@@H]2[C@@H](O)[C@H](O[C@H]3O[C@H](CN)CC[C@H]3N)[C@@H](N)C[C@H]2N)OC[C@]1(C)O.CN[C@@H]1[C@@H](O)[C@@H](O[C@@H]2[C@@H](O)[C@H](O[C@H]3O[C@H]([C@@H](C)N)CC[C@H]3N)[C@@H](N)C[C@H]2N)OC[C@]1(C)O.CN[C@@H]1[C@@H](O)[C@@H](O[C@@H]2[C@@H](O)[C@H](O[C@H]3O[C@H]([C@@H](C)NC)CC[C@H]3N)[C@@H](N)C[C@H]2N)OC[C@]1(C)O` [Gentamicine sulfate] yielded a normalized bacterial growth of 0.84.
`CN[C@@H]1[C@@H](O)[C@@H](O[C@@H]2[C@@H](O)[C@H](O[C@H]3O[C@H](CN)CC[C@H]3N)[C@@H](N)C[C@H]2N)OC[C@]1(C)O.CN[C@@H]1[C@@H](O)[C@@H](O[C@@H]2[C@@H](O)[C@H](O[C@H]3O[C@H]([C@@H](C)N)CC[C@H]3N)[C@@H](N)C[C@H]2N)OC[C@]1(C)O.CN[C@@H]1[C@@H](O)[C@@H](O[C@@H]2[C@@H](O)[C@H](O[C@H]3O[C@H]([C@@H](C)NC)CC[C@H]3N)[C@@H](N)C[C@H]2N)OC[C@]1(C)O` had a normalized bacterial growth of 1.09.
Take `CN1CCc2cc(O)cc3c2[C@H]1Cc1ccc(O)c(O)c1-3` ["R(-)-2,10,11-Trihydroxyaporphine hybrobromide"]: the normalized bacterial growth was 0.965.
Molecule `N[C@@H]1C[C@H]1c1ccccc1` [Tranylcypromine hydrochloride] registered a normalized bacterial growth of 0.976 ± 0.076.
The molecule `CCCN(CCC)[C@@H]1CCc2c(F)ccc(O)c2C1` [R(+)-UH-301 hydrochloride] yielded a normalized bacterial growth of 0.901.
For `COc1cc(C(=O)OC2CC3CCC(C2)N3C)ccc1O` (stereo unspecified) [Fillalbin], the normalized bacterial growth was 0.991.
In turn, `COc1cc(C(=O)OC2CC3CCC(C2)N3C)ccc1O` (stereo unspecified) yielded a normalized bacterial growth of 1.07.
The figure for `CNc1ccccc1C(=O)O` is 1.21.
The figure for `CN1C[C@H](C(=O)N[C@]2(C)O[C@@]3(O)[C@@H]4CCCN4C(=O)[C@H](Cc4ccccc4)N3C2=O)C=C2c3cccc4[nH]cc(c34)C[C@H]21` is 0.875; for `[O-][n+]1ccccc1[S-].[O-][n+]1ccccc1[S-].[Zn+2]` it is 0.118; for `O[C@H]1[C@H](O)[C@@H](O)CN2CC[C@H](O)[C@H]12` it is 1.09.
`CCC1=C[C@@H]2CN3CCc4c([nH]c5ccccc45)[C@@](C(=O)OC)(C2)[C@@H]13` came in with a normalized bacterial growth of 0.941.
`O=C(O)[C@@H]1[C@H](C(=O)O)[C@H]2CC[C@@H]1O2` [Endothall]: the normalized bacterial growth came out at 1.32.
Consider `CCC(C)C(=O)O[C@@H]1C[C@@]2(C)[C@H](c3ccoc3)OC(=O)CC23OC2(C)O[C@]14[C@]1(C)[C@@H](CC(=O)OC)C5(C)CC1(O)[C@](O)(C5OC(=O)C1(C)OC1C)[C@@H](OC(C)=O)[C@]34O2` (stereo partly specified), for which the normalized bacterial growth was determined as 0.697.
In the case of `C[C@H]1CC[C@@H]2[C@@H](C)[C@H]3[C@H](C[C@H]4[C@@H]5CC[C@H]6C[C@@H](O)CC[C@]6(C)[C@H]5CC[C@]34C)N2C1`, the normalized bacterial growth was determined as 1.26.
`ClC(Cl)=C(c1ccc(Cl)cc1)c1ccc(Cl)cc1`: the normalized bacterial growth came out at 1.08.
Turning to `CCOC(=O)C1C(C=C(C)C)C1(C)C` (stereo unspecified), the normalized bacterial growth was 1.01.
The molecule `COC1=C[C@@H]2[C@@H]3Cc4ccc(OC)c(O)c4[C@]2(CCN3C)CC1=O` registered a normalized bacterial growth of 1.02.
On to `O=C1C=CC(=O)c2ccccc21`, for which the normalized bacterial growth is 0.838.
`CC(=O)[C@H]1CC[C@H]2[C@@H]3CC[C@H]4C[C@](C)(O)CC[C@]4(C)[C@H]3CC[C@]12C` [Ganaxolone] displayed a normalized bacterial growth of 0.977.
Then `CN(C)CCc1ccc(O)cc1`, with 1.07; and `COc1cc(CC(C)N)c(OC)cc1I` (stereo unspecified) [()-DOI hydrochloride], with 1.04.
Then `CO[C@@H]1[C@H](O)C[C@@H](O[C@@H]2C[C@H](Oc3cc4cc5c(c(O)c4c(O)c3C)C(=O)[C@@H](O[C@H]3C[C@@H](O[C@H]4C[C@@H](O[C@H]6C[C@](C)(O)[C@@H](OC(C)=O)[C@H](C)O6)[C@H](O)[C@@H](C)O4)[C@H](O)[C@@H](C)O3)[C@H]([C@H](OC)C(=O)[C@@H](O)[C@@H](C)O)C5)O[C@H](C)[C@@H]2OC(C)=O)O[C@@H]1C`, with 0.886; and `C[C@@H]1O[C@@H](O[C@H]2CC[C@]3(C=O)[C@H]4CC[C@]5(C)[C@@H](C6=CC(=O)OC6)CC[C@]5(O)[C@@H]4CC[C@]3(O)C2)[C@H](O)[C@H](O)[C@H]1O`, with 1.02; and `CN1[C@@H]2C[C@@H](OC(=O)[C@H](CO)c3ccccc3)C[C@H]1[C@@H]1O[C@@H]12` [Scopolamine hydrochloride], with 0.542.
As for `CN1[C@@H]2C[C@@H](OC(=O)[C@H](CO)c3ccccc3)C[C@H]1[C@@H]1O[C@@H]12`, the normalized bacterial growth was 1.16.
Then `CN1[C@@H]2C[C@@H](OC(=O)[C@H](CO)c3ccccc3)C[C@H]1[C@@H]1O[C@@H]12` [(-)-Scopolamine hydrobromide], with 0.846.
The figure for `CC1(C)C2CC(=O)[C@]3(C)C(CC[C@@]4(C)[C@H](c5ccoc5)OC(=O)C5OC543)[C@@]2(C)[C@@H](O)C[C@H]1O` (stereo partly specified) is 0.802.
The molecule `c1cc2c(cc1[C@H]1OC[C@H]3[C@@H]1CO[C@H]3c1ccc3c(c1)OCO3)OCO2` gave a normalized bacterial growth of 1.2.
Molecule `N[C@H](C(=O)O)c1cc(O)no1` [()-Ibotenic acid] gave a normalized bacterial growth of 1.04.
In turn, `C[C@]12CC[C@@H](O)C[C@H]1CC[C@@H]1[C@@H]2CC[C@]2(C)C(=O)CC[C@@H]12` [3-alpha-Hydroxy-5-beta-androstan-17-one] came in with a normalized bacterial growth of 0.777.
The figure for `CC(N)c1cccc(Cl)c1Cl` (stereo not drawn) ["()-2,3-Dichloro-alpha-methylbenzylamine hydrochloride"] is 0.657; for `COc1cc2c(cc1OC)[C@@H]1C(=O)c3ccc(OC)c(CC=C(C)C)c3O[C@@H]1CO2` it is 0.664.
Molecule `C#CCN(C)[C@H](C)Cc1ccccc1` gave a normalized bacterial growth of 1.15.
Then `C#CCN(C)[C@H](C)Cc1ccccc1` [Selegiline hydrochloride], with 0.6; and `CN(C)C(=O)Oc1ccc[n+](C)c1` [Pyridostigmine bromide], with 1.15.
As for `C[C@@H]1O[C@@H](O[C@@H]2C=C3CC[C@@H]4[C@H](CC[C@]5(C)[C@@H](c6ccc(=O)oc6)CC[C@]45O)[C@@]3(C)CC2)[C@H](O)[C@H](O)[C@H]1O` [Proscillaridin A], the normalized bacterial growth was 0.974.
For `C=CCN1CC[C@]23CCCC[C@H]2[C@H]1Cc1ccc(O)cc13` [Levallorphan tartrate], the normalized bacterial growth came out at 1.11.
On to `COc1ccc(/C=C/c2cc(O)cc(O)c2)cc1`, for which the normalized bacterial growth stood at 0.908.
As to `CC[C@H]1CN2CC[C@H]1C[C@H]2[C@H](O)c1ccnc2ccc(OC)cc12` [Hydroquinine hydrobromide hydrate], the normalized bacterial growth was determined as 1.15.
Molecule `CC(=O)[O][Hg][c]1ccccc1` came in with a normalized bacterial growth of 0.0799.
In turn, `O=c1[nH]c2ccccc2n1C1CCN(CCCC(c2ccc(F)cc2)c2ccc(F)cc2)CC1` [Pimozide] returned a normalized bacterial growth of 0.629.
The molecule `CCCN1CC[C@@H]2c3cc(O)ccc3CC[C@@H]21` (racemic) [cis(+/-)-8-OH-PBZI hydrobromide] yielded a normalized bacterial growth of 0.94.
On to `C/C=C(\C)C(=O)O[C@H]1C[C@@H](OC(C)=O)[C@@]2(C(=O)OC)CO[C@H]3[C@@H](O)[C@@](C)([C@]45O[C@@]4(C)[C@H]4C[C@@H]5O[C@@H]5OC=C[C@@]54O)[C@H]4[C@]1(CO[C@]4(O)C(=O)OC)[C@@H]32`, for which the normalized bacterial growth is 1.08.
Consider `Cc1cc2c(C(C)C)c(O)c(O)c(C=O)c2c(O)c1-c1c(C)cc2c(C(C)C)c(O)c(O)c(C=O)c2c1O`, for which the normalized bacterial growth was 1.47.
Consider `CC(=O)Nc1cc([As](=O)(O)O)ccc1O`, for which the normalized bacterial growth came out at 0.446.
Then `CC1=C2C[C@H]3[C@@H](CC=C4C[C@@H](O)CC[C@@]43C)[C@@H]2CC[C@]12O[C@@H]1C[C@H](C)CN[C@H]1[C@H]2C`, with 1.06; and `COc1cccc2c1cc([N+](=O)[O-])c1c(C(=O)O)cc3c(c12)OCO3`, with 0.569.
Then `CC(=O)NCCc1c[nH]c2ccccc12` [N-Acetyltryptamine], with 0.484; and `COc1cc2occc2c2oc(=O)ccc12`, with 1.1.
The molecule `NCCc1c[nH]c2ccc(C(N)=O)cc12` [5-Carboxamidotryptamine maleate] yielded a normalized bacterial growth of 0.958.
In the case of `COP(=S)(OC)Oc1cc(Cl)c(Cl)cc1Cl`, the normalized bacterial growth stood at 1.03.
The figure for `CCCCCCCCC(=O)NCc1ccc(O)c(OC)c1` is 0.736; for `NCCC(O)C(=O)NC1CC(N)C(OC2OC(CN)C(O)[C@H](O)[C@@H]2N)[C@H](OC2O[C@H](CO)[C@@H](O)[C@@H]2O)[C@@H]1O` (stereo partly specified) [Butirosin disulfate salt] it is 1.2; for `CC1(C)[C@@H](O)C[C@H]2[C@](C)(O)[C@@H]3CC[C@@H]4[C@@H](O)[C@@]3(C[C@@H](O)[C@@]21O)C[C@@]4(C)O` it is 1.25.
Regarding `Nc1ccc([As](=O)(O)O)cc1`, the normalized bacterial growth turned out to be 0.93.
The molecule `CC(C)c1ccc2c(c1O)CC[C@H]1C3=C(CC[C@]21C)C(=O)OC3` registered a normalized bacterial growth of 0.994.
Then `COC1=C[C@]23CCCN2CCc2cc4c(cc2[C@@H]3[C@@H]1O)OCO4`, with 1.05; and `O=[N+]([O-])c1ccc(O)c([N+](=O)[O-])c1`, with 0.554; and `CC1OC(OC2/C=C/C=C/C=C/C=C/CC/C=C/C=C/[C@H](C)[C@@H](O)[C@@H](C)[C@H](C)OC(=O)CC(O)CC(O)CC(O)CCC(O)C(O)C[C@]3(O)CC(O)C(C(=O)O)C(C2)O3)C(O)C(N)C1O` (stereo partly specified) [Nystatine], with 1.5.
Molecule `NCCCNCCSP(=O)(O)O` [Amifostine] showed a normalized bacterial growth of 0.98.
`CCn1cnc2c(Nc3cccc(Cl)c3)nc(N[C@@H]3CCCC[C@@H]3N)nc21` displayed a normalized bacterial growth of 0.809.
In turn, `Clc1ccc(N2CCN(Cc3c[nH]c4ncccc34)CC2)cc1` ["L-745,870 hydrochloride"] showed a normalized bacterial growth of 1.05.
Regarding `N#CC(C#N)=Cc1ccc([N+](=O)[O-])c(O)c1` [Tyrphostin AG 126], the normalized bacterial growth is 1.19.
With `O=S1(=O)N(CCN2CC=C(c3c[nH]c4cc(F)ccc34)CC2)c2cccc3c2N1CCC3`, the normalized bacterial growth was determined as 0.792.
`CN1CCC2=C[C@H](O)[C@H]3OC(=O)c4cc5c(cc4[C@H]3[C@@H]21)OCO5` [Hippeastrine hydrobromide]: the normalized bacterial growth came out at 0.693.
